Measurements: US7585850B2 (Adenobio N.V., priority 2005, dated 2009)

System: hypoxic rats
Assay: Effect of oral Adb011 on chronic pulmonary hypertension caused by hypoxia in rats
Format: in vivo, rat
Description: Animals were divided in three groups: • Adb-011 chronic treatment (n=5): receiving by gavage Adb-011 (50 mg/kg in suspension with Arabic syrup, 20 mg/ml) twice a day (morning and evening) for 14 days. • Control (n=6): receiving by gavage vehicle (suspension of Arabic syrup 20 mg/kg). • Adb-011 acute treatment (n=6): receiving by gavage vehicle for 14 days and orally treated with a single dose of Adb-011 on the last day (day of surgery). Rats were placed in a chamber where air was circulated at a pressure of 380 Torr, which corresponds to an altitude of 5500 meters. The chamber was open twice a day for ˜30 minutes to treat animals and to replace food and water. On the day of surgery the animals were removed from the chamber and anesthetized with pentobarbital sodium (60 mg/kg ip). A polyethylene catheter (PE-50) was placed in the aortic arch via the left carotid artery. An introducer was advanced in the right ventricle via the right jugular vein. Adequate placement of both catheters was established by the pressure waveform. Both catheters were connected to a pressure transducer (Biopac MP30, BIOPAC Systems, Inc.). The time-lag between last dose of Adb-011 (in group 1) and blood pressure measurement was 14 hours.

CC(=O)Nc1ccc(C(=O)O)cc1.CC(=O)Nc1ccc(C(=O)O)cc1.CC(=O)Nc1ccc(C(=O)O)cc1.CC(O)CN(C)C.CC(O)CN(C)C.CC(O)CN(C)C.Nc1ncnc2c1ncn2[C@@H]1O[C@H](CO)[C@@H](O)[C@H]1O [Adb011]
BW (body weight) (HxA: chronic treatment 14 days): 294 ± 5 g | BW (body weight) (HxC + A 15 min: single oral dose on day of surgery): 303 ± 3 g
